# Data reported in PubChem BioAssay AID2417 (National Center for Advancing Translational Sciences (NCATS), 2010).
# In all, about 140,000 compounds went through this assay and about 4,300 (3.1%) were called active. The inconclusive results got no clear call from the source; some entries with a clear call stand among them for comparison.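 Rule for the calls: active = readout at or below -70, meaning at least 70% loss of cells showing the perinucleolar compartment, a nuclear body marking cancer cells; inconclusive = readout between -30 and a set limit; inactive = the rest.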
# Assay: High Content Assay for Compounds that inhibit the Assembly of the Perinucleolar Compartment;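 note: plate controls were DMSO wells for no effect and camptothecin positive control wells for full effect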
# Settings: PC3M PTB-GFP, PNC prevalence imaging, 16 h; at 10 µM; hits give low values
# Procedure, shortened: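 Compounds are pinned in duplicate onto adhered PC3M cells stably expressing GFP-tagged PTB and incubated 16 h at 37 C. Cells are then fixed, nuclei stained with Hoechst, and PNC-positive cells counted.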
row,SMILES,"activity change (PNC), negative = inhibition"
1,CC12c3ccccc3C(c3ccccc31)C1C(=O)N(Cc3cccnc3)C(=O)[C@H]12 (stereo partly specified),inconclusive: -34%
2,O=C(NNC(=O)c1cccnc1)Nc1cccc(Cl)c1Cl,inconclusive: -54.7%
3,Cc1ccc(-c2noc(CN3CCN(c4ccccc4F)CC3)n2)cc1,inconclusive: -61.2%
4,COC(=O)c1ccc(-c2n[nH]c(=O)c3ccccc23)cc1,inconclusive: -36.5%
5,COc1ccc(C2C(C(=O)NCCN(C)C)c3ccccc3C(=O)N2C)cc1OC (stereo unspecified),inconclusive: -38.2%
6,Cc1coc2cc3oc(=O)cc(C)c3cc12,inconclusive: -49.8%
7,CCOC(=O)N/N=C(C)/C=C/c1ccccc1,inconclusive: -41.7%
8,O=C(NCC(c1cccnc1)N1CCOCC1)C1CCCCC1 (stereo unspecified),inconclusive: -33.5%
9,CCCCn1c(SCN2C(=O)c3ccccc3C2=O)nc2cc(S(N)(=O)=O)ccc21,inactive: -18.8%
10,Cc1ccc(-c2nc3ccccc3s2)cc1NC(=S)NC(=O)c1ccccc1,inactive: 23%
11,CCOc1cc(C(N)=O)cc(OCC)c1OCC,inconclusive: -33.6%
12,CCOc1ccc(NC(=O)CNc2ccc(C)cc2Cl)cc1,inactive: 38.7%
13,O=C(NCc1ccco1)c1ccc(COc2cc(Cl)ccc2Cl)cc1,inactive: -2.17%
14,CC(C)n1c(SCC(=O)Nc2ccccc2)nc2c1c(=O)n(C)c(=O)n2C,inactive: -23%
15,CCCN1CCN(S(=O)(=O)c2ccc(OC)c(Br)c2)CC1,inactive: 15.8%
16,COc1cccc(NC(=S)N(CCCN2CCOCC2)Cc2cn(C)c3ccccc23)c1,inconclusive: -60%
17,O=C(O)C1CCC(N2C(=O)C3CCCCC3C2=O)CC1 (stereo unspecified),inconclusive: -30.4%
18,Cn1cccc1Cc1nnc(SCC(=O)Nc2ccc3c(c2)OCO3)n1CCc1ccccc1,inconclusive: -46%
19,CCOC(=O)CC(=O)Nc1c(C)cc(C)cc1C,inconclusive: -59.7%
20,CC(=O)c1c(C)cc(C)c(CSc2nc(C)cc(=O)[nH]2)c1C,active: -112%
21,c1ccc(-c2nc3ccccc3nc2N2CCOCC2)cc1,inconclusive: -71.6%
22,O=C(c1cccnc1)N1CCN(S(=O)(=O)c2ccc(S(=O)(=O)N3CCCC3)cc2)CC1,inconclusive: -43.6%
23,CC(C)(C)c1ccc(-c2conc2N)cc1,inconclusive: -53.7%

# 6 records picked at random from the list so far:
row,SMILES,"activity change (PNC), negative = inhibition"
23,CC(C)(C)c1ccc(-c2conc2N)cc1,inconclusive: -53.7%
4,COC(=O)c1ccc(-c2n[nH]c(=O)c3ccccc23)cc1,inconclusive: -36.5%
2,O=C(NNC(=O)c1cccnc1)Nc1cccc(Cl)c1Cl,inconclusive: -54.7%
1,CC12c3ccccc3C(c3ccccc31)C1C(=O)N(Cc3cccnc3)C(=O)[C@H]12 (stereo partly specified),inconclusive: -34%
6,Cc1coc2cc3oc(=O)cc(C)c3cc12,inconclusive: -49.8%
15,CCCN1CCN(S(=O)(=O)c2ccc(OC)c(Br)c2)CC1,inactive: 15.8%

# Following part:

row,SMILES,"activity change (PNC), negative = inhibition"
1,CSc1nnc(CNC(=O)C23CC4CC(CC(C4)C2)C3)n1Cc1ccccc1,active: -115%
2,CC(=O)c1sc(NC(=O)C2(F)C(F)(F)C(F)(F)C(F)(F)C(F)(F)C2(F)F)nc1C,inactive: 37.7%
3,COc1ccc2cc(CN(Cc3cccs3)Cc3nnnn3Cc3ccccc3)c(=O)[nH]c2c1,inactive: 25%
4,CC(=O)c1ccc(OCCCC(=O)Nc2ccc(C)c(S(=O)(=O)N(C)C)c2)cc1,inactive: 4.48%
5,Clc1ccc(/C=C/c2nc3ccccc3[nH]2)cc1,inactive: -1.04%
6,Cc1cccc(-c2noc(CN(C(=O)C34CC5CC(CC(C5)C3)C4)C(C)C)n2)c1,inconclusive: -67.7%
7,O=C(N1CCN=C1SCc1cccnc1)C12CC3CC(CC(C3)C1)C2,inconclusive: -61.6%
8,c1ccc(C(c2nnnn2C2CCCCC2)N2CCc3ccccc3C2)nc1 (stereo unspecified),inconclusive: -47.2%
9,CCCCN(C)CCOc1ccccc1OCC,inconclusive: -62.3%
10,CCOC(=O)C1=C(c2ccccc2)NC(SCC(=O)Nc2ccccc2C)=C(C#N)C1c1ccco1 (stereo unspecified),inconclusive: -66.5%
11,Cc1[nH]nc(-c2ccc(O)c(C)c2O)c1Oc1ccccc1,inactive: -16.3%
12,Cc1ccccc1-c1noc(-c2ccc(O)cc2)n1,inconclusive: -41%
13,COc1ccc(-n2c(C)n[nH]c2=O)cc1OC,inconclusive: -32.5%
14,CCCn1c2c(c(=N)c3c1CCC3)CCCC2,inconclusive: -57.9%
15,O=c1cc(-c2ccc(O)c(-c3c(O)cc(O)c4c(=O)cc(-c5ccc(O)cc5)oc34)c2)oc2cc(O)cc(O)c12,inactive: -21.5%
16,COc1ccc2c(c1OC)C(=O)OC2Nn1cncn1 (stereo unspecified),active: -93.8%
17,COc1ccccc1-c1c(C(F)(F)F)oc2cc(OCC(=O)Nc3cc(C)ccc3C)ccc2c1=O,inconclusive: -34.1%
18,CCCCc1ccc(N=N/C(C(=O)Nc2ccccc2OC)=C(/C)O)cc1,inconclusive: -46%
19,Cc1ccc(N2C(=O)c3ccccc3C2C(=O)c2ccc(O)cc2O)cc1 (stereo unspecified),inconclusive: -38.1%
20,COc1cc(/C=C/c2cc(OC(C)=O)c3ccccc3n2)c(OC(C)=O)c([N+](=O)[O-])c1,inactive: -5.04%
21,Cc1ccccc1Oc1ccc(-c2nc(N)nc(N)n2)cc1,inconclusive: -45.7%
22,CCOC(=O)CC(=O)CSc1ncnc2c1cnn2-c1ccccc1,inactive: 3.45%
23,CCC(C)(C)n1nnnc1CN1CCc2ccccc21,inactive: -17.7%

row,SMILES,"activity change (PNC), negative = inhibition"
1,O=C(CC(c1ccccc1)c1ccccc1)Nc1ccc(Cl)cn1,inactive: -20.3%
2,COCCCNc1nc2c(c(=O)[nH]c(=O)n2C)n1CC(O)COc1ccccc1C (stereo unspecified),inactive: 21.7%
3,Cc1ccc(/C=N/NC(=O)c2cc(C3CC3)nc3ccccc23)o1,active: -108%
4,CCOC(=O)C1=C(C)N=c2s/c(=C3/C(=O)Nc4ccccc43)c(=O)n2C1c1ccc(C)cc1 (stereo unspecified),inactive: -13.5%
5,O=C(NCc1cccs1)C1CCCN(c2ncccn2)C1 (stereo unspecified),active: -86%
6,CN=C1SC(C(=O)O)CC(=O)N1C (stereo unspecified),inconclusive: -33.1%
7,NC(=O)C1CCN(C(=O)C23CC4CC(CC(C4)C2)C3)CC1,inconclusive: -34.8%
8,COc1ccc(-c2n[nH]c(=S)o2)c(OC)c1,inconclusive: -31.5%
9,Brc1ccccc1-c1nnc(COc2cccc3cccnc23)o1,inconclusive: -38%
10,O=C(CCN1CCOCC1)Nc1ccc2c(c1)N(C(=O)CN1CCOCC1)c1ccccc1CC2,inconclusive: -34.4%
11,CCC(=O)Nc1ccc2c(c1)ncn2-c1ccc(OC)cc1,inconclusive: -60.1%
12,CCN1CC2=C(OC(N)=C(C#N)C2c2cccs2)/C(=C\c2cccs2)C1 (stereo unspecified),inactive: 3.33%
13,COc1ccc(CCNc2nc(-c3sc(C)nc3C)cs2)cc1OC,inactive: 17.4%
14,CCS(=O)(=O)N1Cc2ccccc2CC1C(=O)Nc1nc2ccc(F)cc2s1 (stereo unspecified),inactive: 48.1%
15,COc1cccc(S(=O)(=O)Nc2cccc(C(=O)N3CCOCC3)c2)c1,inactive: 6.46%
16,COc1ccc(OC)c(-c2csc3nnc(SCC(=O)Nc4ccc(NC(C)=O)cc4)n23)c1,inconclusive: -48.8%
17,COc1ccc(OC)c(S(=O)(=O)n2cnc3cc(C)c(C)cc32)c1,inactive: 24.3%
18,CCOc1c(Br)cc(CNCc2cccs2)cc1OC,inconclusive: -38.5%
19,Cc1cccnc1NC(=O)Nc1cccc(C(F)(F)F)c1,inconclusive: -67.5%
20,CN(C(=O)CSc1nnc(Cc2cccc3ccccc23)n1N)C1CCS(=O)(=O)C1 (stereo unspecified),inconclusive: -56.4%
21,CCc1nc2oc3cc(OC)ccc3c(=O)c2c(=O)n1Cc1ccco1,inconclusive: -59.9%
22,NC(=O)COc1ccc2c3c(c(=O)oc2c1)CCCCC3,inactive: -10.3%
23,CCN(CC)C(=O)C1CCCN(C(=O)Nc2ccc3nsnc3c2)C1 (stereo unspecified),inconclusive: -49.2%

row,SMILES,"activity change (PNC), negative = inhibition"
1,COc1ccc(CC(=O)Nc2cccc(S(=O)(=O)N3CCCCCC3)c2)cc1OC,inconclusive: -32%
2,CCOc1cccc(C(=O)N(Cc2ccc(F)cc2)C2CCS(=O)(=O)C2)c1 (stereo unspecified),inconclusive: -38.7%
3,O=C(Nc1nc2ccc(S(=O)(=O)N3CCCC3)cc2s1)C1CCCCC1,active: -108%
4,CCOC(=O)CCc1c(C)nc2cc(-c3ccccc3OC)[nH]n2c1=O,inconclusive: -44.6%
5,O=C1CC(c2ccc3c(c2)OCO3)Sc2nc3ccccc3n21 (stereo unspecified),inconclusive: -48.8%
6,COc1ccc(-c2nc(-c3ccc4c(c3)OCO4)[nH]c2-c2ccc(OC)cc2)cc1,inactive: 61.5%
7,O=C(CN1C(=O)COc2ccccc21)Nc1ccc(F)cc1,inconclusive: -58.4%
8,O=[N+]([O-])c1cc(Cl)ccc1-c1nc(-c2ccccc2)no1,inconclusive: -46.5%
9,CCc1c(O)nc(SCC(=O)N2CCCCC2)n(-c2ccccc2C)c1=O,inconclusive: -32.2%
10,CN(C)C(=O)N1CCN(C(=O)c2ccco2)CC1,inconclusive: -31.8%
11,CC1(C)CC(NC(=O)CC2CCCCC2)CC(C)(C)N1,inactive: -4.17%
12,COC(=O)c1cc(NC(=O)c2cc(C)oc2C)cc(C(=O)OC)c1,active: -100%
13,CCC(=O)Nc1ccc(/C(C)=N/NC(=O)c2c(Br)c(C)nn2C)cc1,inconclusive: -40.8%
14,CC1CC1C(=O)Nc1nc(-c2ccccn2)cs1 (stereo unspecified),inactive: 23.6%
15,CC(=O)CSc1nc(N)c(C#N)c(-c2cccs2)c1C#N,inactive: -20.2%
16,Cc1ccccc1Cn1ccc(NC(=O)c2cnn3c2NC(c2ccccc2)CC3C(F)(F)F)n1 (stereo unspecified),inconclusive: -50.2%
17,O=C(N/N=C/c1ccc2c(c1)OCO2)c1sc2cccc(Cl)c2c1Cl,inconclusive: -58.2%
18,CC(Oc1ccc(Cl)cc1Cl)C(=O)N/N=C1\CCCc2ccccc21 (stereo unspecified),inactive: -12.7%
19,COc1cc(C(=O)Sc2ccc(Cl)cc2)cc(OC)c1OC,inconclusive: -39.6%
20,O=C(NCc1ccco1)/C(=C/c1cccnc1)NC(=O)c1ccco1,inactive: -12%
21,CCOc1ccccc1-c1c2cc(O)c(=O)cc-2oc2cc(O)c(O)cc12,active: -83.5%
22,Cc1ccc(S(=O)(=O)NCC(=O)N(CC(=O)NC2CCCCC2)CC2CCCO2)cc1 (stereo unspecified),inconclusive: -69.4%

# By substructure, the compounds so far with a COOH group
row,SMILES,"activity change (PNC), negative = inhibition"
17,O=C(O)C1CCC(N2C(=O)C3CCCCC3C2=O)CC1 (stereo unspecified),inconclusive: -30.4%
6,CN=C1SC(C(=O)O)CC(=O)N1C (stereo unspecified),inconclusive: -33.1%
